This is an account of results in patent US20080226630A1.

These are yes or no findings as the source states them, for the method shown. Binding calls can cover weak binding; strength is not graded here.

The test deals with RSV protein G (human respiratory syncytial virus, strain not stated). In words: ELISA, FLISA and/or Biacore.

B1: antibody 816 (clone 816) (antibody, human IgG1, kappa, V domains shown)
VH: EVQLLESGGGLVQPGGSLRLSCVASGFTFSTYAMTWVRQAPGKGLEWVSVIRASGDSEIYADSVRGRFTISRDNSKNTVFLQMDSLRVEDTAVYFCANIGQRRYCSGDHCYGHFDYWGQGTLVTVSS
VL: DIVMTQSPLSLPVTPGEPASISCRSSQSLLHSDGRYYVDWYLQKPGQSPHLLIYLASNRASGVPDRFTGSGSGTDFTLKISRVEAEDVGVYYCMQGLHTPWTFGQGTKVDIKR
Regarding B1, the binding entry is listed as “binds”.

B2: antibody 835 (clone 835) (antibody, human IgG1, kappa, V domains shown)
VH: QVQLVQSGAEVKRPGASVKVSCKASGYTFISYGFSWVRQAPGQGLEWMGWSSVYNGDTNYAQKFHGRVNMTTDTSTNTAYMELRGLRSDDTAVYFCARDRNVVLLPAAPFGGMDVWGQGTMVTVSS
VL: DIQLTQSPSFLSASLEDRVTITCRASQGISSYLAWYQQKPGKAPKLLLDAASTLQSGVPSRFSGSGSGTEFTLTISSLQPEDFATYYCQQLNSYPRTFGQGTKVDIKR
For the molecule B2, the binding entry is “binds”.
